From the supplement of paper PMC4371806
In all, about 2,300 compounds were measured (“plate-normalized OD600 growth (mean of duplicates)”: median about 0.29, lowest 2% from about 0.22 on). This is one part of the list.

Tested on: Escherichia coli BW25113
Assay: plate-normalized OD600 growth (mean of duplicates) (OD600 (normalized)); higher = more growth (less inhibition)
Conditions: 10 µM
Method: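 E. coli BW25113 in LB (100 µl, 96-well, no shaking) was exposed to 10 µM of each compound from a ~30,000-member library and grown at 37°C for 24 h or 15°C for 48 h, in duplicate. Growth was read as OD600 and the duplicate ODs were normalized across screening plates to correct plate-to-plate variation. Hits were >3σ below the mean OD600 at 15°C and <2σ below the mean at 37°C.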

| Compound | plate-normalized OD600 growth (temperature: 15°C, 48 h) | plate-normalized OD600 growth (temperature: 37°C, 24 h) |
| --- | --- | --- |
| Nn1cnnc1N/N=C/c1ccc(-c2ccc(OC(F)(F)F)cc2)o1 | 0.256 | 0.626 |
| Nc1nonc1C(=NCc1ccccc1)NOCc1ccc(Cl)cc1Cl | 0.256 | 0.617 |
| CCOc1ccc(C(CC(=O)O)NC(C)=O)cc1 (stereo unspecified) | 0.26 | 0.606 |
| C/C(=N\NC(=O)CNC(=O)C(c1ccccc1)c1ccccc1)c1ccc(C)cc1 | 0.263 | 0.607 |
| CC(=O)Nc1ccc(S(=O)(=O)NN2C(=O)/C(=C/c3ccco3)N=C2c2ccccc2)cc1 | 0.258 | 0.617 |
| COc1ccc(OC)c(CNc2ccc3c(c2)nc(C)n3C)c1 | 0.25 | 0.63 |
| O=C(CSc1nnc(-c2ccncc2)n1-c1ccc(Cl)cc1)Nc1ccc2cn[nH]c2c1 | 0.247 | 0.592 |
| CC1=C(C(=O)Nc2ccccc2C)C(c2cccs2)C(C#N)=C(SCC(=O)Nc2cccc(Cl)c2)N1 (stereo unspecified) | 0.25 | 0.618 |
| Cc1cc(=O)n(-c2ccccc2)n1CNc1nccs1 | 0.258 | 0.602 |
| CCN(CC)CCNC(=O)c1c(C)oc2cc3c(C(=O)NCCN(CC)CC)c(C)oc3cc12 | 0.239 | 0.624 |
| COc1cc(Cl)c(Cl)cc1Cl | 0.251 | 0.604 |
| COc1cc(O)ccc1/C=N/NC(=O)c1cccc([N+](=O)[O-])c1 | 0.248 | 0.614 |
| CCOc1ccc(C(CC(=O)O)NC(=O)c2cccc([N+](=O)[O-])c2)cc1OC (stereo unspecified) | 0.245 | 0.643 |
| COc1ccc(NC(=O)CC2C(=O)N(c3ccc(OC)cc3)C(=S)N2CCCn2nc(C(F)(F)F)cc2C(F)(F)F)cc1 (stereo unspecified) | 0.252 | 0.61 |
| COc1ccc(N2CC(=O)N(/N=C/c3ccccc3Cl)C2=S)cc1 | 0.259 | 0.629 |
| CC1(C)COC(=CC(=O)c2ccc(Cl)cc2)N1 | 0.237 | 0.612 |
| CCCc1cc(=O)c2ccc(O)cc2o1 | 0.259 | 0.611 |
| Nc1nc(-c2ccccc2)nc(-n2cccc2)n1 | 0.231 | 0.608 |
| O=S(=O)(c1cccc2ccccc12)N1CCN(c2ccc(Cl)c(Cl)c2)CC1 | 0.256 | 0.62 |
| C=CCc1cc(-c2cc(C(=O)O)c3c(ccc4ccccc43)n2)cc(OC)c1O | 0.259 | 0.622 |
| COc1ccc(C2NCC(C(=O)O)S2)cc1 (stereo unspecified) | 0.249 | 0.615 |
| CCc1nnc(NC(=O)COC(=O)CSc2nc(-c3ccccc3)cc(-c3ccccc3)n2)s1 | 0.238 | 0.627 |
| COc1cc(C(=S)N2CCCCC2)ccc1OC(=O)c1ccccc1 | 0.00796 | 0.606 |
| N#C/C(=C\c1cccn1-c1ccc(OC(F)(F)F)cc1)S(=O)(=O)c1ccccc1 | 0.237 | 0.618 |

| Compound | plate-normalized OD600 growth (temperature: 15°C, 48 h) | plate-normalized OD600 growth (temperature: 37°C, 24 h) |
| --- | --- | --- |
| COc1ccc(C2CC(=O)C3=C(C2)Nc2ccccc2NC3c2ccccn2)cc1 (stereo unspecified) | 0.253 | 0.611 |
| CCCCNC(=O)CSc1nc2ccc(N)cc2s1 | 0.252 | 0.608 |
| c1ccc(C2CC(c3cccs3)n3ncnc3N2)cc1 (stereo unspecified) | 0.256 | 0.605 |
| Cc1cc(NC(=NS(=O)(=O)c2ccc(Br)cc2)c2ccccc2)c(Cl)c(C)c1O | 0.214 | 0.634 |
| Cc1ccc2nc(/C(C#N)=C/c3cc([N+](=O)[O-])c(N4CCOCC4)cc3N3CCOCC3)[nH]c2c1 | 0.244 | 0.618 |
| CC(C)(C)NC(=S)NC1CCN(Cc2ccccc2)CC1 | 0.246 | 0.615 |
| COc1c(Cl)cnc(Cl)c1C(N)=O | 0.265 | 0.636 |
| Cc1ccc(C(=O)NCCc2ccccc2)cc1 | 0.248 | 0.593 |
| O=C(N/N=C\c1cccs1)c1ccccc1CO | 0.241 | 0.614 |
| c1ccc(-c2nc3nnnn3nc2-c2ccccc2)cc1 | 0.242 | 0.616 |
| Cc1ccc(C2CC(=O)C3=C(C2)Nc2ccccc2N(C(=O)C2CC2)C3c2cccnc2)cc1 (stereo unspecified) | 0.253 | 0.629 |
| Cc1ccnc(NC(=O)c2cccs2)c1 | 0.259 | 0.621 |
| Cc1ccc(Oc2ccc(C)cc2)cc1 | 0.243 | 0.645 |
| CC(C)Oc1ccc(C(=O)CCN2CCOCC2)cc1 | 0.237 | 0.608 |
| CC(Oc1ccc(Br)cc1)C(=O)NNC(=O)c1cc2cc(Br)ccc2oc1=O (stereo unspecified) | 0.227 | 0.612 |
| Cc1cccc(NC(=O)c2cccs2)n1 | 0.246 | 0.616 |
| CCOC(=O)C1=C(c2ccccc2)OC(N)=C(C#N)C1c1cc([N+](=O)[O-])cs1 (stereo unspecified) | 0.238 | 0.609 |
| CC(=O)Nc1ccc(NC(C)=O)c(NC2OCC(O)C(O)C2O)c1 (stereo unspecified) | 0.243 | 0.624 |
| O=C1/C(=C/c2cccc(OCc3ccc(Cl)cc3)c2)Sc2ccccc21 | 0.227 | 0.645 |
| N#C/C(=C\Nc1ccc2c(c1)OCCO2)S(=O)(=O)c1ccc(C(F)(F)F)cn1 | 0.268 | 0.625 |
| O=C(CNC(=O)C(c1ccccc1)c1ccccc1)N/N=C/c1cc(Br)ccc1O | 0.237 | 0.617 |
| CCCOc1ccccc1/C=N\NC(=S)Nc1cccc(F)c1 | 0.272 | 0.645 |
| O=C(Oc1ccc(NC2=NS(=O)(=O)c3ccccc32)cc1)c1ccccc1 | 0.239 | 0.62 |
| O=C(NC1(C(F)(F)F)C(=O)Nc2c1c(=O)[nH]c(=O)n2-c1ccccc1)c1ccc(Cl)cc1 (stereo unspecified) | 0.241 | 0.641 |

Some of the entries so far, in CSV form.
Compound,"plate-normalized OD600 growth (temperature: 15°C, 48 h)","plate-normalized OD600 growth (temperature: 37°C, 24 h)"
Cc1ccc(C2CC(=O)C3=C(C2)Nc2ccccc2N(C(=O)C2CC2)C3c2cccnc2)cc1 (stereo unspecified),0.253,0.629
CCCOc1ccccc1/C=N\NC(=S)Nc1cccc(F)c1,0.272,0.645
